Data reported in patent US4607023A, “Natriuretic” (L'Institut de Recherches Cliniques de Montreal, priority 1983, dated 1986).
Entries after “also recorded” stand apart in the source; their conditions may differ. Not every detail of the peptide structures is certain; ends, links or a residue may be inferred.

Experiments:
[1] = system: rabbit renal arteries (helical vascular strips); test: Vasorelaxant activity in vitro on norepinephrine-contracted rabbit renal artery strips; assay type: cell-based; conditions: 0.25 μg peptide added to the bath 5 min before the cumulative NE curve; p<0.01
Procedure: The vasorelaxant activities of the ANFs of this invention are determined in vitro by means of a procedure involving the use of mammalian vascular strips. Briefly, healthy rabbits are anesthetized with sodium pentobarbital (30 mg/kg i.v.), their renal arteries are rapidly excised, fat and connective tissure are trimmed off, and the arterial issue is helically cut. The helical strips thus obtained are mounted between a fixed base and a force displacement transducer, immersed in a bath of continuously oxygenated Krebs solution at 37° C. and pH 7.4, and a tension of 500-700 mg is applied to the strip of arterial tissue. L-Norepinephrine bitartrate (NE) is added to the bath to obtain concentrations of NE ranging from 3.9×10^-6 to […], the contractions elicited by NE are registered on a polygraph, and a cumulative dose-response curve is established. Once a standard curve is reproducible it is repeated five minutes after having added 0.25 μg of the respective ANF to the bath. […]
For each arterial strip a cumulative dose-response curve to NE (L-norepinephrine bitartrate, Sigma Chemicals) ranging from 3.9×10^-6 to 1.6×10^-2 mM was obtained. […] The contraction elicited for each dose of NE is expressed as a percent of the maximum response.
Results are expressed as mean ±SEM. […]

[2] = system: female Sprague-Dawley rats; test: Natriuretic and diuretic bioassay: urinary Na+ excretion after i.v. bolus in anesthetized rats; assay type: in vivo, rat; conditions: 15 to 1350 pmoles i.v. bolus, change of Na+ excretion per 20 min, at least four rats per dose
Procedure: Diuretic and natriuretic activities of the ANFs are determined by the method of Garcia et al., (1982) Experientia 38, 1071-1073 and of Thibault et al., (1983) Hypertension 5, (Suppl. I), 75-80, both cited above, in female Sprague-Dawley rats (180-200 g) anesthetized with pentobarbital (60 mg/kg i.p.) equipped with a bladder catheter and an intrajugular vein catheter. The animals receive an infusion of 5% dextrose (3 ml/hr) for 45 minutes before the assay and during the evaluation period. Urine is collected in pre-weighed vials for 20 minute intervals. Following a basal collection period the ANFs to be assayed are injected as a bolus of 1 ml in Krebs solution pH 7.4 via the intrajugular vein catheter, urine is collected for a 20 minute period, and sodium concentrations are determined by flame photometry. Results are expressed as μEq of Na^+ for the collection period of 20 minutes from which the sodium excretion of the control period has been subtracted (ΔμEq Na^+ /20 min), and specific activity is defined as ΔμEq Na^+ /20 min/mg of protein. Protein is measured by the Bradford assay, see Spector, T. (1978) Anal. Biochem. 86, 142-146, with bovine albumin as a standard except for substantially pure ANFs where the amount of peptide is estimated from the amino acid sequencer. […]

Q: `CC[C@H](C)[C@@H]1NC(=O)[C@H](CCCNC(=N)N)NC(=O)[C@H](CC(=O)O)NC(=O)[C@H]([C@@H](C)CC)NC(=O)[C@H](CCCNC(=N)N)NC(=O)CNC(=O)CNC(=O)[C@H](Cc2ccccc2)NC(=O)[C@@H](NC(=O)[C@H](CO)NC(=O)[C@H](CO)NC(=O)[C@H](CCCNC(=N)N)NC(=O)[C@@H](N)CCCNC(=N)N)CSSC[C@@H](C(=O)N[C@@H](CC(N)=O)C(=O)N[C@@H](CO)C(=O)N[C@@H](Cc2ccccc2)C(=O)N[C@@H](CCCNC(=N)N)C(=O)N[C@@H](Cc2ccc(O)cc2)C(N)=O)NC(=O)CNC(=O)[C@H](CC(C)C)NC(=O)CNC(=O)[C@H](CO)NC(=O)[C@H](CCC(N)=O)NC(=O)[C@H](C)NC(=O)CNC1=O` [ANF(8-33) amide] was tested. Which “vasorelaxant activity: displacement of the norepinephrine dose-response curve (FIG. 13)” value [1] did it give?
A: The value was “displacing the response to norepinephrine (NE) to the right”.

Q: And the “natriuretic activity, comparison in words (FIG. 12)” value [2]?
A: Its value is “comparable to that of native ANF(3-33); also recorded: comparable natriuretic activities”.

Q: What about the “natriuretic activity, comparison in words (FIG. 12)” value ([2]; listed as ANF (8-33) amide) of the same compound?
A: The value was “little, if any, difference in their respective natriuretic activities”.
